Values of other authors, collected in patent US5594009A, “Fused pyrrolocarbazoles” (priority 1995, dated 1997).

Tested on: transcription of IFNα genes
Settings: not associated with the inhibition of protein kinase C; cited from earlier work

CN[C@@H]1C[C@H]2O[C@@](C)([C@@H]1OC)n1c3ccccc3c3c4c(c5c6ccccc6n2c5c31)C(=O)NC4 [staurosporine]
inhibition of transcription of IFNα genes: inhibit the transcription of IFNα genes
